# In article PMC3812156:
# By UniProt entry, the sequences of proteins in these tests, tags left out.
# UniProt Q9JK91: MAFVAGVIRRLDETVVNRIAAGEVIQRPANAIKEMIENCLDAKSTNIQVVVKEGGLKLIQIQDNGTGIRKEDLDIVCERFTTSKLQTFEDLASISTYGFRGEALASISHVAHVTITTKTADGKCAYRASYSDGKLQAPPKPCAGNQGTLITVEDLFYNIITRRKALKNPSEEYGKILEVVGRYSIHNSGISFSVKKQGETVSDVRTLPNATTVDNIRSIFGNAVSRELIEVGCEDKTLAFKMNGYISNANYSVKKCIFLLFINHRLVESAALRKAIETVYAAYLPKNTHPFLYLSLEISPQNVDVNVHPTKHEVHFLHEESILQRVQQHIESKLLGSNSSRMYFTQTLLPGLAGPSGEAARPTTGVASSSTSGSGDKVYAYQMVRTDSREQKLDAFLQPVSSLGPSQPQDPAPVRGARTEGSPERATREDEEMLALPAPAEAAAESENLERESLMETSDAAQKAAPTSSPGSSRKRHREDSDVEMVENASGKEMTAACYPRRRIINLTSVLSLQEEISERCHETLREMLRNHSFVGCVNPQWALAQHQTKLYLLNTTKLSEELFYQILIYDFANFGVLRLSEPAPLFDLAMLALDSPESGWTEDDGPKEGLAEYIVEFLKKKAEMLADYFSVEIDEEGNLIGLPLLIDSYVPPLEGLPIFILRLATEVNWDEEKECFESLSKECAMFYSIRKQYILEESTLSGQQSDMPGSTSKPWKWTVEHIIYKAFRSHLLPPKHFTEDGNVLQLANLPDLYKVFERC
# UniProt Q9Z2D7: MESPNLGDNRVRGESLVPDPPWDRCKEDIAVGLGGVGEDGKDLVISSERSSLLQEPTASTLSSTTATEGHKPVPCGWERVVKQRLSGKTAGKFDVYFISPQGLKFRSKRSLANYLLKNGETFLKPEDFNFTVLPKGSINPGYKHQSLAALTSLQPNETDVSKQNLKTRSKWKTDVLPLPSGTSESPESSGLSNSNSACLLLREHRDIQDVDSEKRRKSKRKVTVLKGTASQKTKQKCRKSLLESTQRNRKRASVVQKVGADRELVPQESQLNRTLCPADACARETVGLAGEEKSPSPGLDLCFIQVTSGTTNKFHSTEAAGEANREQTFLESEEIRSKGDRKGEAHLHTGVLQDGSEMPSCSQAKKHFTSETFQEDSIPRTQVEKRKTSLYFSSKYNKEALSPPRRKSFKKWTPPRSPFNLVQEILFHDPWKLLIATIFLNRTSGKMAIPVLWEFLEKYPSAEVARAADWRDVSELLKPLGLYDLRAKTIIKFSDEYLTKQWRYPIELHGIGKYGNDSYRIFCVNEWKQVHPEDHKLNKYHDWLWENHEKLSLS
# These are yes or no findings as the source states them, for the method shown. Binding seen in cells or lysates may run through a third protein. Some results given as binding are weak or reduced against the parent protein; the word gives no strength.
# B1: postmeiotic segregation increased 2 (PMS2) (protein, UniProt P54279 1-859)
# chain: MEQTEGVSTECAKAIKPIDGKSVHQICSGQVVLSLSTAVKELIENSVDAGATTIDLRLKDYGVDLIEVSDNGCGVEEENFEGLALKHHTSKIQEFADLTQVETFGFRGEALSSLCALSDVTISTCHGSASVGTRLVFDHNGKITQKTPYPRPKGTTVSVQHLFYTLPVRYKEFQRNIKKEYAKMVQVLQAYCIISAGVRVSCTNQLGQGKRQPVVCTSGSSGMKENIGSVFGQKQLQSLIPFVQLPPSDAVCEEYGLSTSRTPQNLFYVSGFISQCTHGAGRSATDRQFFFINQRPCDPAKVSKLVNEVYHMYNRHQYPFVVLNVSVDSECVDINVTPDKRQILLQEEKLLLAVLKTSLIGMFDSDANKLNVNQQPLLDVEGNLVKLHTAELEKPVPGKQDNSPSLKSTADEKRVASISRLREAFSLHPTKEIKSRGPETAELTRSFPSEKRGVLSSYPSDVISYRGLRGSQDKLVSPTDSPGDCMDREKIEKDSGLSSTSAGSEEGFSTPEVASSFSSDYNVSSPEDRPSQETINCGDLDCRPPGTGQSLKPEDHGYQCKALPLARLSPTNAKRFKTEERPSNVNISQRLPGPQSTSAAEVDVAIKMNKRIVLLEFSLSSLAKRMKQLQHLKAQNKHELSYRKFRAKICPGENQAAEDELRKEISKSMFAEMEILGQFNLGFIVTKLKEDLFLVDQHAADEKYNFEMLQQHTVLQAQRLITPQTLNLTAVNEAVLIENLEIFRKNGFDFVIDEDAPVTERAKLISLPTSKNWTFGPQDIDELIFMLSDSPGVMCRPSRVRQMFASRACRKSVMIGTALNASEMKKLITHMGEMDHPWNCPHGRPTMRHVANLDVISQN
# How the values were obtained:
# [1] = target: MutL homologue 1 (MLH1) (mouse (endogenous in CH12.F3)) (UniProt Q9JK91); experiment: co-IP; nuclear extracts (100 µg) of CH12.F3 cells induced with CIT for 24 hours; IP with anti-MLH1 or anti-MBD4 Abs (anti-GFP as control) and protein-A beads, 4°C; DTT omitted, final NaCl 100 mM; Western blot
# [2] = target: Methyl CpG binding domain protein 4 (MBD4) (mouse (endogenous in CH12.F3)) (UniProt Q9Z2D7); experiment: as above
binder,measurement,setting,value
B1,binding,[1],binds
same,binding,[2],binds
